These are yes or no findings as the source states them, for the method shown. Some binding calls cover weakened binding; strength is not graded here.
Key:
[1] = target: Human IL-4R (human) (UniProt P24394); assay: binding activity assay of formulation samples S1-S9 etc. after 40℃ for 1 month (method not described; values in Table 3.4, not shown)
[2] = target: Human IL-4R (human) (UniProt P24394); assay: binding activity assay of optimised formulation samples (O series) after 40℃ for 1 month (method not described; values in Table 4.4, not shown)

Sequences of proteins named here, by UniProt entry; tags and fusion partners are left off. Residues count along the entry.
UniProt P24394, residues 26-232: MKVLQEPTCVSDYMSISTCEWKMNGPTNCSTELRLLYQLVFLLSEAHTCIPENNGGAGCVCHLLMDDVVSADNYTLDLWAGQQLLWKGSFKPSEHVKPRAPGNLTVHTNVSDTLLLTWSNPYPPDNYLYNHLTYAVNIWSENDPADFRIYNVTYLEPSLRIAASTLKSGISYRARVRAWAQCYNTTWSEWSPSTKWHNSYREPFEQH

binding [1]: binds | binding [2]: binds
B1: 抗人IL-4Rα单克隆抗体 (antibody, human IgG4 S228P, kappa, V domains shown)
VH: EVQLVESGGGLVQPGGSLRLSCAASGFTFSDYGMHWVRQAPGKGLEWVSYISSGSTTIYYADTVKGRFTISRDNAKNSLYLQMNSLRAEDTAVYYCARISTVVAKRYAMDYWGQGTLVTVSS
VL: DIQMTQSPSSLSASVGDRVTITCRASQDISNYLNWYQQKPGKAPKLLIYYTSRLHSGVPSRFSGSGSGTDFTLTISSLQPEDIATYYCQQINALPFTFGQGTKLEIKR
